Measured values: PubChem BioAssay AID1347076 (National Center for Advancing Translational Sciences (NCATS), 2019)
Among all 400,000 compounds or so, about 13,000 (3.2%) were called active. The shares of active, inactive and inconclusive entries below differ from those in the screen. The call rests on the fitted dose curve; in most records, active means well fitted cell-killing curve with a large enough effect; inconclusive means small, poorly fitted or top-dose-only effect, or effect the other way; inactive means flat fitted curve, though single readings scatter. Potencies beside an inconclusive call are fits to weak or partial responses and may not hold up.

assay: qHTS assay for MDR1-selective chemotherapeutics: Primary screen using the drug-selected MDR subline cells KB-V1; conditions: KB-V1 MDR cells viability, CellTiter-Glo, 72 h; activity change, negative = cytotoxicity: at 46.1 µM (top of the series); further: nearly all actives have a fitted effect of over 60% in size
Procedure, shortened: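 Cytotoxicity toward P-gp-expressing KB-V1 cells was determined as loss of CellTiter-Glo luminescence after 72 h at 37 degrees C. Compounds were tested in quantitative HTS format across a concentration range, with curves fitted to normalized data.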
On the % scale 0 is the no-effect control and ±100 the full control effect; potency means the concentration at half of the fitted maximal effect.

Row | Structure (SMILES) | Potency | activity change, negative = cytotoxicity
1 | CCc1ccc(N2C(=O)CSC23C(=O)N(Cc2cccc(F)c2)c2ccccc23)cc1 (stereo not drawn) | active: 11.6 µM | –
2 | c1ccc(-c2[nH]ncc2CN2CCc3ccccc3C2)cc1 | – | inactive: -24.5%
3 | C[C@@H](C(=O)NCc1ccccc1)[C@H]1C[C@]1(C)[C@H](NC(=O)OCc1ccccc1)c1ccccc1 | inconclusive: 29.1 µM [cytotoxic, single point] | –
4 | Cc1onc(-c2c(F)cccc2Cl)c1C(=O)NC1CCCCCC1 | – | inactive: 0%
5 | COc1ccc(NC(=O)Cn2ncc3c([nH]c4ccccc43)c2=O)cc1Cl | inconclusive: 18.4 µM [rising, single point] | –
6 | CCc1ccc(CN(C)CC(=O)Nc2ccccc2[N+](=O)[O-])cc1 | inconclusive: 20.6 µM [cytotoxic, single point] | –
7 | COC(=O)c1c(C)c2c(C)cc3ccccn3c-2c1C(=O)OC | – | inactive: 1.39%
8 | OC/C(Br)=C(\Br)CO | – | inactive: -3.94%
9 | O=C(CCN1CCN(c2ccccc2)CC1)N/N=C/c1ccc([N+](=O)[O-])o1 | inconclusive: 23.1 µM [cytotoxic, single point] | –
10 | O=C(CSc1nnc(-c2ccccn2)n1Cc1ccco1)c1ccccc1 | inconclusive: 25.9 µM [cytotoxic, single point] | –
11 | Cc1cc(-n2c(C)cc(C(=O)CN3C(=O)NC4(CCCC4)C3=O)c2C)no1 | inconclusive: 14.6 µM [cytotoxic, partial curve, poor fit] | –
12 | Cc1ccc(S(=O)(=O)CCC(=O)OCC(=O)Nc2ncc(Cl)cc2Cl)cc1 | inconclusive: 10.3 µM [rising, partial curve, poor fit] | –
13 | Cc1ccccc1NS(=O)(=O)c1ccc(C(=O)N2CCCC(C(F)(F)F)C2)cc1 (stereo not drawn) | inconclusive: 13 µM [cytotoxic, partial curve] | –
14 | CC(C)n1cc(CN2CCN(CCc3ccccc3)C(CCO)C2)cn1 (stereo not drawn) | – | inactive: -20.9%
15 | COc1ccc(-n2nc(C(=O)NCC(=O)NCc3ccccc3OC)c3ccccc3c2=O)c(OC)c1 | inconclusive: 11.6 µM [cytotoxic, partial curve, poor fit] | –
16 | CCCn1c(CC)nc([N+](=O)[O-])c1Sc1ccc(F)cc1 | inconclusive: 29.1 µM [cytotoxic, single point] | –
17 | CCCCNC(=O)C1C(c2ccc(C(F)(F)F)cc2)=Nc2ccccc2N1C(=O)c1ccc2nc(C)[nH]c2c1 (stereo not drawn) | inconclusive: 29.1 µM [cytotoxic, single point] | –
18 | O=C1C(Cc2ccc(Br)cc2)SC(=Nc2ccccc2)N1c1ccccc1 (stereo not drawn) | active: 20.6 µM | –
19 | Cn1c(O)c(N=NC(=N)N)c2ccccc21 | inconclusive: 20.6 µM [rising, single point] | –
20 | C=CCNC(=O)/C(C#N)=C/c1cn(-c2ccccc2)nc1-c1cccs1 | inconclusive: 5.17 µM [cytotoxic, full curve] | –
21 | COc1cc(C(=O)Nc2c(C)cc(C)cc2C)c([N+](=O)[O-])cc1OC | active: 20.6 µM | –
22 | Nc1cc(=O)nc(SCC(=O)N2CCN(c3ccccc3)CC2)n1-c1ccccc1 | – | inactive: 12.1%

Row | Structure (SMILES) | Potency | activity change, negative = cytotoxicity
23 | COc1ccc(C(=O)N/C(=C\c2cn(S(=O)(=O)N(C)C)c3ccccc23)C(=O)NCCCn2ccnc2)cc1 | inconclusive: 29.1 µM [rising, single point] | –
24 | C#CC(=O)CCC1CCCN1C(=O)OC(C)(C)C (stereo not drawn) | – | inactive: 0%
25 | Cc1ccc(C(=O)Nc2cccc(N3C(=O)C4CCC(C)CC4C3=O)c2)cc1 (stereo not drawn) | inconclusive: 20.6 µM [cytotoxic, single point] | –
26 | CCOc1cc(C=O)cc(Br)c1OCC(N)=O | – | inactive: 11.3%
27 | Cc1cc(Cl)ccc1OCC(=O)Nc1ccccc1NS(=O)(=O)c1cccs1 | inconclusive: 9.2 µM [cytotoxic, partial curve] | –
28 | O[C@H]1C[C@H](c2ccc(Cl)cc2)N(Cc2cccs2)C[C@@H]1n1cc(C2CC2)nn1 | inconclusive: 20.6 µM [cytotoxic, single point] | –
29 | O=[N+]([O-])c1ccc(Nc2ccc(F)cc2)nc1 | inconclusive: 25.9 µM [rising, partial curve, poor fit] | –
30 | CC(C)(C)N1CC(C(=O)Nc2cccc(Cl)c2Cl)CC1=O (stereo not drawn) | inconclusive: 23.1 µM [cytotoxic, partial curve, poor fit] | –
31 | CC12CCCc3c(O)cc(=O)n(c31)-c1ccccc12 (stereo not drawn) | – | inconclusive: -32.2% [cytotoxic]
32 | C=CCn1c(SCC(=O)N2CC(=O)Nc3ccccc32)nc2scc(-c3cccs3)c2c1=O | inconclusive: 29.1 µM [cytotoxic, single point] | –
33 | O=C(Nc1ccc(S(=O)(=O)N2CCN(c3ccccc3)CC2)cc1)c1cccs1 | inconclusive: 23.1 µM [cytotoxic, single point] | –
34 | Cc1nn(-c2ccccc2)c(N2CCCC2)c1/C=N/NC(=O)c1cc(-c2ccccn2)nc2ccccc12 | inconclusive: 23.1 µM [cytotoxic, single point] | –
35 | CCc1cc(-c2nnn(CCC3COCCO3)c2CC)ccc1-c1cn(Cc2ccc3ccccc3c2)nn1 (stereo not drawn) | inconclusive: 1.84 µM [cytotoxic, partial curve, poor fit] | –
36 | Cc1ccc(NC(=S)N(CCN2CCCCC2)Cc2ccco2)cc1Cl | inconclusive: 10.3 µM [cytotoxic, partial curve] | –
37 | CCOC(=O)c1ccc(N2C(=O)c3n[nH]c(C)c3C2c2ccc(OC)cc2OC)cc1 (stereo not drawn) | inconclusive: 14.6 µM [cytotoxic, partial curve] | –
38 | Cc1cccc(N/N=C(\C(N)=O)C2=NC(C)(C)Cc3ccccc32)c1 | active: 23.1 µM | –
39 | Cc1nnc(N2CCCC(C(=O)NCc3ccc(OC(C)C)cc3)C2)c2nn(-c3ccccc3)c(C)c12 (stereo not drawn) | – | inactive: -3.69%
40 | CCOC(=O)c1c(C)sc(Sc2ccc(Cl)cc2[N+](=O)[O-])c1OC | inconclusive: 20.6 µM [cytotoxic, partial curve] | –
41 | CCN1CCN(C(=S)Nc2ccc(C(C)=O)cc2)CC1 | inconclusive: 18.4 µM [rising, single point] | –
42 | COc1ccc(N(CC(O)Cn2cnc3ccccc32)S(=O)(=O)c2ccc(C)cc2)cc1 (stereo not drawn) | – | inactive: 5.41%
43 | CCOC(=O)C1CCCN(CCSc2ccc(C)cc2)C1 (stereo not drawn) | inconclusive: 29.1 µM [cytotoxic, partial curve, poor fit] | –

Shown in markdown: 2 of the compounds above

| Row | Structure (SMILES) | Potency | activity change, negative = cytotoxicity |
| --- | --- | --- | --- |
| 30 | CC(C)(C)N1CC(C(=O)Nc2cccc(Cl)c2Cl)CC1=O (stereo not drawn) | inconclusive: 23.1 µM [cytotoxic, partial curve, poor fit] | – |
| 40 | CCOC(=O)c1c(C)sc(Sc2ccc(Cl)cc2[N+](=O)[O-])c1OC | inconclusive: 20.6 µM [cytotoxic, partial curve] | – |
